Measurements: publication PMC7573076
No constants are given. Whether binding was seen depends on the method and setting. Binding seen in cells or lysates may run through a third protein. A result given as binding can be weak or reduced; the word gives no strength. For some of these results: Tags and fused reporters may be left off the sequences shown.

Key:
[1] = target: T1, chicken MDA5 (chMDA5) (chicken (endogenous in DF1)) (UniProt D9N195); test: co-IP; DF1 cell lysates immunoprecipitated with rabbit pAb against chMDA5, western blotting with antibodies against the endogenous proteins (Supplementary Figure S2)
T1 sequence: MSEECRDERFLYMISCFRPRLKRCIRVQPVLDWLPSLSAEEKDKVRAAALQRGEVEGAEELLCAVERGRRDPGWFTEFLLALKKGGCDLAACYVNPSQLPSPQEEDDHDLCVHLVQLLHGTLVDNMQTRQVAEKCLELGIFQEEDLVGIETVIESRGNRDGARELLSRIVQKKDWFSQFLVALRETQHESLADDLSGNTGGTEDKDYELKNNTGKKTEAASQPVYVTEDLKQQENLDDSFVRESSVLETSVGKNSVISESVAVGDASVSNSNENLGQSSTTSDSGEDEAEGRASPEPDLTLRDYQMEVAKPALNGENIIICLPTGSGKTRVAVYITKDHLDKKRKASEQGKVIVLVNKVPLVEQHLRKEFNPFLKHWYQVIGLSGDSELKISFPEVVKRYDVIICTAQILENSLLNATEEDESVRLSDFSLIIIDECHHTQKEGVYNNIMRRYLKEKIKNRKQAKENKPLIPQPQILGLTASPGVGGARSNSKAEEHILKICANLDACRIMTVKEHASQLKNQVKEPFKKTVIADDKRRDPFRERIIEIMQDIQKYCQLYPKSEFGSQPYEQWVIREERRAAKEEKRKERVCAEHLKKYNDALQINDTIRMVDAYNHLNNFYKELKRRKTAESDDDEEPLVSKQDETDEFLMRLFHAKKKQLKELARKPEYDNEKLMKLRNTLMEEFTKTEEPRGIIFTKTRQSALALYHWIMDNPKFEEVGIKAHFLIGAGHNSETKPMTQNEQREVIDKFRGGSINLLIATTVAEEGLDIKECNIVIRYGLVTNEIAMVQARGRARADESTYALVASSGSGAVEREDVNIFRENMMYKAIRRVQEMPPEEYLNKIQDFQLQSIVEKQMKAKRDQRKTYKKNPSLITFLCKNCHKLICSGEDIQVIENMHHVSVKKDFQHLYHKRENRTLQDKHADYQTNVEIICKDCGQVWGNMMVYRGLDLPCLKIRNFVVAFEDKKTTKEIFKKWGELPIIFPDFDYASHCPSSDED

[2] = target: T2, HA-chMDA5-N (chicken) (UniProt D9N195); test: co-IP; tagged constructs co-transfected into DF1 cells, RIPA lysate 24 h later, anti-Flag or anti-HA magnetic beads at 4°C, immunoblot
T2 sequence: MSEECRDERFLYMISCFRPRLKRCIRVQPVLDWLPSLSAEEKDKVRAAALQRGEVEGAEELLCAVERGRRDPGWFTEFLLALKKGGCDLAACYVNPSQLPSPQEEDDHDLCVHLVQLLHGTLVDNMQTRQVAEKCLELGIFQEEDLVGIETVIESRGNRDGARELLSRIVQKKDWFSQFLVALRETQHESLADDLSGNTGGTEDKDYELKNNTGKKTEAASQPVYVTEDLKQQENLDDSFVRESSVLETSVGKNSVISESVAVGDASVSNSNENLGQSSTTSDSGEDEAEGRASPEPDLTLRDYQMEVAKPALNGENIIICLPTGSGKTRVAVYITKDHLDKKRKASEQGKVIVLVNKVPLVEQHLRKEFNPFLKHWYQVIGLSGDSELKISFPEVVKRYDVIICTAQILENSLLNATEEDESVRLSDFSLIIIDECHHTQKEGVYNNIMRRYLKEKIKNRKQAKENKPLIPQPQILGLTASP

[3] = target: T2, HA-chMDA5-N (chicken); test: co-IP; Flag-hnRNPH2 and HA-chMDA5-N; cell lysates pretreated with RNase A/T1 (Supplementary Figure S3)

| Substance | binding [1] | binding [2] | binding [3] |
| --- | --- | --- | --- |
| chicken DDX5 | binds |  |  |
| chicken hnRNPH2 | binds |  |  |
| Flag-tagged chicken IFIT5 |  | binds |  |
| Flag-tagged chicken DDX5 |  | binds |  |
| chicken IFIT5 | binds |  |  |
| Flag-hnRNPH2 (chicken) |  | binds | binds |
